Measured values as given in publication PMC11362013, “Mechanism for controlled assembly of transcriptional condensates by Aire” (Nature Immunology, 2024).
No constants are given. Whether binding was seen depends on the method and setting. Binding seen in cells or lysates may run through a third protein. A result given as binding can be weak or reduced; the word gives no strength.

The chains behind the UniProt entries cited, without tags or fusion partners. Where a name states a change or a piece, a line headed by the entry shows the natural chain unless it says otherwise.
UniProt Q9Z0E3: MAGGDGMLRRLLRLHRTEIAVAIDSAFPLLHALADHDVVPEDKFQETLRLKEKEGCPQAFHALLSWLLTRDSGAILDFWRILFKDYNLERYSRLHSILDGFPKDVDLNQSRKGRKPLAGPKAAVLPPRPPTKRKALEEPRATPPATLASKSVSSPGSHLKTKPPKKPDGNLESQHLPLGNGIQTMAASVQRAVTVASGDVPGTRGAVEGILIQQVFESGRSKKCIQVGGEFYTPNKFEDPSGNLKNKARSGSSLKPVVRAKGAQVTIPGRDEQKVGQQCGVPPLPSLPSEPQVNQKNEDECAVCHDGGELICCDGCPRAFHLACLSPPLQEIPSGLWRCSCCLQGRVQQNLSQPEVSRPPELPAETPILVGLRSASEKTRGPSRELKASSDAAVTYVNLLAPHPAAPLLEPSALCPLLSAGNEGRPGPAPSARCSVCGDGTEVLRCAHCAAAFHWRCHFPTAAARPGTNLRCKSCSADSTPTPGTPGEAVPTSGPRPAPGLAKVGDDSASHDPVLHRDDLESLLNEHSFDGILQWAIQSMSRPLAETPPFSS
UniProt Q09472: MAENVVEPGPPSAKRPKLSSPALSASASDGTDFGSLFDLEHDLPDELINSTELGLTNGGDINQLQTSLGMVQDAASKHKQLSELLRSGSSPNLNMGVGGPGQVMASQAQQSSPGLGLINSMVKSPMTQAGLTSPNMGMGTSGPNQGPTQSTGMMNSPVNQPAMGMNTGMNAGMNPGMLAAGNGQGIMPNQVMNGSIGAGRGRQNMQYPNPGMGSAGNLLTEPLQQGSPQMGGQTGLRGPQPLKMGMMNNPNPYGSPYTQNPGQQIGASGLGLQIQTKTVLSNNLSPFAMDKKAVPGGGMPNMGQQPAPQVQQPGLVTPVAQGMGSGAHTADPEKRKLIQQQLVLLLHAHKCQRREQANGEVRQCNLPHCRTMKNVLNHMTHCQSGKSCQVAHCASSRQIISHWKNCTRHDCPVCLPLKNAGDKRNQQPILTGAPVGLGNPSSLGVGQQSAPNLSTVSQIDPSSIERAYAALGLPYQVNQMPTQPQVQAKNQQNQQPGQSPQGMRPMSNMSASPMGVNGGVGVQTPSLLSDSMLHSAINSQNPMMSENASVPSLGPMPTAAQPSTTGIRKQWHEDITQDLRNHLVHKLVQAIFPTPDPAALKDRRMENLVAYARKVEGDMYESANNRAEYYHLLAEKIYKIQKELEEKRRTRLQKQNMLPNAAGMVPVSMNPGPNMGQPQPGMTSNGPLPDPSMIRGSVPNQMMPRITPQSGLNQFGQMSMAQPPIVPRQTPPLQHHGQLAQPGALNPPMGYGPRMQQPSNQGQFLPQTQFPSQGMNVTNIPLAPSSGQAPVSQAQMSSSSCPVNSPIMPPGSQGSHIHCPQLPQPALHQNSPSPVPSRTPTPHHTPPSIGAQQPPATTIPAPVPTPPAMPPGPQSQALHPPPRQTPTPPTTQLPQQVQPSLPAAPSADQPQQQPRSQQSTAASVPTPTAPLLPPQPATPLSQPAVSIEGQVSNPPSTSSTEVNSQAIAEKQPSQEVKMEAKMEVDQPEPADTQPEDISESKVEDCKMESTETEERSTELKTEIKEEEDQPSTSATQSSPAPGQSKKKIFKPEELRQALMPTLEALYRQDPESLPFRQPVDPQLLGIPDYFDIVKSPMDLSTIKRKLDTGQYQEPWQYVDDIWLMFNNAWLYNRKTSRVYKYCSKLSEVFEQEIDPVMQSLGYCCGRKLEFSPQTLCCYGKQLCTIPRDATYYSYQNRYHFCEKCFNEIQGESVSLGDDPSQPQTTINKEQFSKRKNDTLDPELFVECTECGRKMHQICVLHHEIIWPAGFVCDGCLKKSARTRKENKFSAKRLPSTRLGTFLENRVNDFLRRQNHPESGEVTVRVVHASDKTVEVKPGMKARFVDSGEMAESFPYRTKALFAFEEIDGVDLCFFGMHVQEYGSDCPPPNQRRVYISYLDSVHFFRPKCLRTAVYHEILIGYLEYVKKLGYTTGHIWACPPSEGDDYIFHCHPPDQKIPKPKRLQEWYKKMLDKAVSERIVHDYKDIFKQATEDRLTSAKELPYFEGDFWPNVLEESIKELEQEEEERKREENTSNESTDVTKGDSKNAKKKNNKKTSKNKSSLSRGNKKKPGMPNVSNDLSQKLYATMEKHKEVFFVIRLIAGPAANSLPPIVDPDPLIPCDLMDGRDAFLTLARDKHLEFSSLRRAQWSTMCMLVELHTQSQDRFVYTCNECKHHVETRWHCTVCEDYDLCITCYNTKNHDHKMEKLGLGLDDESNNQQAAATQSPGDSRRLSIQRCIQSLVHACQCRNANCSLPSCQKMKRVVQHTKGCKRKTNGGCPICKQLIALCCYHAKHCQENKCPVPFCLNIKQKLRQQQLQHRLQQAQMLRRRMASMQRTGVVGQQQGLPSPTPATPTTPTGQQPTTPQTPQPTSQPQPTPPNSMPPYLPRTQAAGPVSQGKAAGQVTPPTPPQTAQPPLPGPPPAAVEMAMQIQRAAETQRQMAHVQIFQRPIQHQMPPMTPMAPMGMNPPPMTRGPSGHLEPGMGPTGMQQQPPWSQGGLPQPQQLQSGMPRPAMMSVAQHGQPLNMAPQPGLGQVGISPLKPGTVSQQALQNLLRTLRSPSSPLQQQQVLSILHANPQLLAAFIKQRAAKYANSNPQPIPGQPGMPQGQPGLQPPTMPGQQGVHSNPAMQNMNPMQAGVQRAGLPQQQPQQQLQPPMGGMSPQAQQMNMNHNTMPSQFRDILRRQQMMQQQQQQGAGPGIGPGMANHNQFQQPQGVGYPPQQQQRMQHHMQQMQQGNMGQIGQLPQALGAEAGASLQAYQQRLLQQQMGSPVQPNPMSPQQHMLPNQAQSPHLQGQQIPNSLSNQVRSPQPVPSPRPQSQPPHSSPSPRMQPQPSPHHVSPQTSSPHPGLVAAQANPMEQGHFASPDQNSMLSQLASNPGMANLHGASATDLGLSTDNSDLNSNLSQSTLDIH

How the values were obtained:
Test in all cases: pull-down; His6-GST-mouse Aire CTT-FLAG variants on glutathione Sepharose beads (SEC Buffer: 25 mM HEPES pH 7.5, 100 mM NaCl, 5 mM BME; blocked with 0.1% BSA), nuclear extracts of 293T cells transfected with HA-p300 variants, 1 h, 4 °C; western blot; only the target purified
[1] = target: His6-GST-mouse Aire CTT-FLAG ΔCTT.R1 (mouse) (UniProt Q9Z0E3)
[2] = target: His6-GST-mouse Aire CTT-FLAG ΔCTT.R2 (mouse) (UniProt Q9Z0E3)
[3] = target: His6-GST-mouse Aire CTT-FLAG ΔCTT.R3 (mouse) (UniProt Q9Z0E3)

Measured: binding

HA-p300 (from UniProt Q09472 1-2414)
binds: all assays above
